Source: the supplement of paper PMC11006884
The targets with a hit were mostly taken out for another list; the other results follow. Single values of this set are uncertain. The entries are a selection whose mix differs from that of the whole data set.

Chains of the proteins cited; added tags and fusions are not shown. Lines headed by an entry give the natural chain unless they say otherwise; changes in a name come on top.
UniProt Q06203, whole entry, looked up: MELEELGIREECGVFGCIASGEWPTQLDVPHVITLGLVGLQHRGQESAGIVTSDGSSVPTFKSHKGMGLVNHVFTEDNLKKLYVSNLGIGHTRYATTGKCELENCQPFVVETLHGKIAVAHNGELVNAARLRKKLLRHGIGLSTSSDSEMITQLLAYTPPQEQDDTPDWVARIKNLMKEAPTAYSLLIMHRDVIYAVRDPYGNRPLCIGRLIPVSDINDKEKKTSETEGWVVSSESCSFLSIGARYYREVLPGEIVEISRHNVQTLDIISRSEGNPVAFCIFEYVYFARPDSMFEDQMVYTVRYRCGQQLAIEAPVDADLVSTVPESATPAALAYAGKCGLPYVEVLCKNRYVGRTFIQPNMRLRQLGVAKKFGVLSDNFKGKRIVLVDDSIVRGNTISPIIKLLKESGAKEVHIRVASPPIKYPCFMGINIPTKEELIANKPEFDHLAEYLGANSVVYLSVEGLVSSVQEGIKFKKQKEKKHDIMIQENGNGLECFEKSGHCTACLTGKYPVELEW
UniProt Q05639, whole entry, looked up: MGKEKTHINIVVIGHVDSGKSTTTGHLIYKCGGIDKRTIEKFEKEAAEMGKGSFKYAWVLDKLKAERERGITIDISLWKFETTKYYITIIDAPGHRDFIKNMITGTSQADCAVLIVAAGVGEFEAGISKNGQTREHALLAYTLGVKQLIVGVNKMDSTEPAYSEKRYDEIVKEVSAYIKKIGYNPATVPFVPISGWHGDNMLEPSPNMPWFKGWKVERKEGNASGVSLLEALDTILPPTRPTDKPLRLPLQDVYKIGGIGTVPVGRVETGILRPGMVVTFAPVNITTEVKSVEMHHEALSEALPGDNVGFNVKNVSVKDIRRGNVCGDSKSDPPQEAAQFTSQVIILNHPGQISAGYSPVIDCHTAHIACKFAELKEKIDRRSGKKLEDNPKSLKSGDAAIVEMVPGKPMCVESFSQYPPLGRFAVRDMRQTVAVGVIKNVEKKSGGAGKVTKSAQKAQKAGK
UniProt Q0VDG4: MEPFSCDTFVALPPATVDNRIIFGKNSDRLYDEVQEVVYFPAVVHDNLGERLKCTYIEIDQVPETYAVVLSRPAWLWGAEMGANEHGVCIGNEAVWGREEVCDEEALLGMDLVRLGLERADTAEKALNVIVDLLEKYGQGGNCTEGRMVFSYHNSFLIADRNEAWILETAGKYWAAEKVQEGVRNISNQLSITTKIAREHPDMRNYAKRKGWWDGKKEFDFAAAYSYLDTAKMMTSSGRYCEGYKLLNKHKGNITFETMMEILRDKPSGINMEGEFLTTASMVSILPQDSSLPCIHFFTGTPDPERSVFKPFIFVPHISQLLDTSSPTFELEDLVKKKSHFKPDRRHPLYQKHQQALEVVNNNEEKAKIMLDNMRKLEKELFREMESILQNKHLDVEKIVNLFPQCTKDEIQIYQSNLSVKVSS
UniProt Q13123, whole entry: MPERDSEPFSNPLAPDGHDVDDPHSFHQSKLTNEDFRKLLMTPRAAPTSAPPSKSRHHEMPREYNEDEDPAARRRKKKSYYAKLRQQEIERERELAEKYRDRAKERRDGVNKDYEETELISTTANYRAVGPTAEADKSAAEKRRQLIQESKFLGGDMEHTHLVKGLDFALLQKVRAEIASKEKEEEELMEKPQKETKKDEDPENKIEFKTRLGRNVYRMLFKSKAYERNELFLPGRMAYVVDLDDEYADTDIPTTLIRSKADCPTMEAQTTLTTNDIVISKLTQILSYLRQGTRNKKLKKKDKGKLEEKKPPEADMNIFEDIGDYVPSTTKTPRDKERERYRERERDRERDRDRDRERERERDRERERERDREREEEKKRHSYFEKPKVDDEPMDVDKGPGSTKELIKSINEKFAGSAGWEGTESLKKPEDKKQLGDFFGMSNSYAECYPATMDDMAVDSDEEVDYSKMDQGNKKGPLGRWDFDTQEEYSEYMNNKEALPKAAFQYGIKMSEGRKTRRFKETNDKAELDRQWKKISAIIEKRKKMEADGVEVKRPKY
UniProt Q02809: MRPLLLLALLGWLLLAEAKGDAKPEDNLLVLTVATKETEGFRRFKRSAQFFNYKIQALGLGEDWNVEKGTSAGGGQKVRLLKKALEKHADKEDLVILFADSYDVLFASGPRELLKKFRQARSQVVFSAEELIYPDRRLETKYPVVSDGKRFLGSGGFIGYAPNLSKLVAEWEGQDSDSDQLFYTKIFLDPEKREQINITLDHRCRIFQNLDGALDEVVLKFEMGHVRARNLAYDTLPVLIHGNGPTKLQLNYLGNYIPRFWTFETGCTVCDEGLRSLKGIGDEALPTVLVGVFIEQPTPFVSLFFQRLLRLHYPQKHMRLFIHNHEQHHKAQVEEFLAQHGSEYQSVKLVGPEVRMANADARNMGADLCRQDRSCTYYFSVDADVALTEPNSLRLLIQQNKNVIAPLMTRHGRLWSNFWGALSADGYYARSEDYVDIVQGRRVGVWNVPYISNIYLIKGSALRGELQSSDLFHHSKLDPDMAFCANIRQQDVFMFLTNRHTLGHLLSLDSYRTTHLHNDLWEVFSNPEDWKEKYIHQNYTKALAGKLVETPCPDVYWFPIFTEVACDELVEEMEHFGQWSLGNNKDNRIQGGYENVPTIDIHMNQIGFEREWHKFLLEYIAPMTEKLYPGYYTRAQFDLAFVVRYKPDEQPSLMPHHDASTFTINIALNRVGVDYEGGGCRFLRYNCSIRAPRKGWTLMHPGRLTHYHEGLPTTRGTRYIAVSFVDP
UniProt Q02930: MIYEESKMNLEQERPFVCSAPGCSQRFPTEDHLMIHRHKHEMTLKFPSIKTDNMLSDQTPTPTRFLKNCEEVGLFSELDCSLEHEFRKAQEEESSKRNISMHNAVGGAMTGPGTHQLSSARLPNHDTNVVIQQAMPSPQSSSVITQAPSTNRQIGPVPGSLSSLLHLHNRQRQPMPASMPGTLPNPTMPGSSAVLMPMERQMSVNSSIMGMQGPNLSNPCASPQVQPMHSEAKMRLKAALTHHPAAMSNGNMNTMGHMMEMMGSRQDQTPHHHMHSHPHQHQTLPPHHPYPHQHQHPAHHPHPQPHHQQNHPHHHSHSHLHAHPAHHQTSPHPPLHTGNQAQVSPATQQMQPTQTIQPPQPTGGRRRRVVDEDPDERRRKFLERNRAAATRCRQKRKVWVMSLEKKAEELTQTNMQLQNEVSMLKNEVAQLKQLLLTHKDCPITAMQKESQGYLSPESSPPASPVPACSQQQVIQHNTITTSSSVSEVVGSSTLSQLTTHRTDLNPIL
UniProt Q08211, whole entry, looked up: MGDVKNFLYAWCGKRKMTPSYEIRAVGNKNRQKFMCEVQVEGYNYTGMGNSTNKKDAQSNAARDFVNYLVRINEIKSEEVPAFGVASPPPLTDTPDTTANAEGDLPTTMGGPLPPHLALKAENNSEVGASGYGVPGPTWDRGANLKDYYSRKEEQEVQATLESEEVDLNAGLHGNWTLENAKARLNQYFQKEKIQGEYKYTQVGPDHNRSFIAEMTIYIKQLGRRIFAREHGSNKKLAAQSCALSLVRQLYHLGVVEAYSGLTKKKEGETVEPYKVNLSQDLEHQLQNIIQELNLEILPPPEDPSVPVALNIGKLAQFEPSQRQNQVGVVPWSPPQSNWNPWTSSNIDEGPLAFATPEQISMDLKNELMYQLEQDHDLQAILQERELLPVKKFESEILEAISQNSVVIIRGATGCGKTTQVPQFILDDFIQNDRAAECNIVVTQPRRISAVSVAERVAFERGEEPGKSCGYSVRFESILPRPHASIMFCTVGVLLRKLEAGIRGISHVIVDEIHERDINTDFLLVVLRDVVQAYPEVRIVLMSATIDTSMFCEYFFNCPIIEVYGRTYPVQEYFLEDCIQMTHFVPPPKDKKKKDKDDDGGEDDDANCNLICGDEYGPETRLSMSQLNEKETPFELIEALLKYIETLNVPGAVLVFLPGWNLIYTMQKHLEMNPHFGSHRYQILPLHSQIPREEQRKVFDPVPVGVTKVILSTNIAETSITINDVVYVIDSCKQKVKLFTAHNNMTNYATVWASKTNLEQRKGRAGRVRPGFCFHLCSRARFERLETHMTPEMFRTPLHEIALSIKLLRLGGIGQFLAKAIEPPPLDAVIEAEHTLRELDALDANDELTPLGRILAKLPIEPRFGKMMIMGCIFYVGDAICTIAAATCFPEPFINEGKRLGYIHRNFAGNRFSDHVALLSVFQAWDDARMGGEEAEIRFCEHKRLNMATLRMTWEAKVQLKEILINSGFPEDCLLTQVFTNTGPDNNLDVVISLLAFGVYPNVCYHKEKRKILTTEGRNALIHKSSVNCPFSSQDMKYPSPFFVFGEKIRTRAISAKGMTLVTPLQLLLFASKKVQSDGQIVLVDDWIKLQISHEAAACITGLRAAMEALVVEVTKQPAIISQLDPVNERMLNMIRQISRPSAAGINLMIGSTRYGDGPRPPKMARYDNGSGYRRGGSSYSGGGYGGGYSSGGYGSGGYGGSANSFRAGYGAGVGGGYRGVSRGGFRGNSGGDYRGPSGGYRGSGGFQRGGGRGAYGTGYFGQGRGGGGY
UniProt Q13155: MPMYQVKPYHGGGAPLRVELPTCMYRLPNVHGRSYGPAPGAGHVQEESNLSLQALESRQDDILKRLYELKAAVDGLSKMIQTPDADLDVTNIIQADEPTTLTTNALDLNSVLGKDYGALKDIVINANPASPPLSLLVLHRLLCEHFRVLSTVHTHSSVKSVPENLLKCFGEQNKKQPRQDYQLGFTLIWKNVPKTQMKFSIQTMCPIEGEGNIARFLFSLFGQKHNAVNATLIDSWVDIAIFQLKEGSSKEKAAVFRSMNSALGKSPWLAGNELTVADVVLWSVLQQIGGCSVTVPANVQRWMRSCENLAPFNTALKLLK
UniProt Q13263: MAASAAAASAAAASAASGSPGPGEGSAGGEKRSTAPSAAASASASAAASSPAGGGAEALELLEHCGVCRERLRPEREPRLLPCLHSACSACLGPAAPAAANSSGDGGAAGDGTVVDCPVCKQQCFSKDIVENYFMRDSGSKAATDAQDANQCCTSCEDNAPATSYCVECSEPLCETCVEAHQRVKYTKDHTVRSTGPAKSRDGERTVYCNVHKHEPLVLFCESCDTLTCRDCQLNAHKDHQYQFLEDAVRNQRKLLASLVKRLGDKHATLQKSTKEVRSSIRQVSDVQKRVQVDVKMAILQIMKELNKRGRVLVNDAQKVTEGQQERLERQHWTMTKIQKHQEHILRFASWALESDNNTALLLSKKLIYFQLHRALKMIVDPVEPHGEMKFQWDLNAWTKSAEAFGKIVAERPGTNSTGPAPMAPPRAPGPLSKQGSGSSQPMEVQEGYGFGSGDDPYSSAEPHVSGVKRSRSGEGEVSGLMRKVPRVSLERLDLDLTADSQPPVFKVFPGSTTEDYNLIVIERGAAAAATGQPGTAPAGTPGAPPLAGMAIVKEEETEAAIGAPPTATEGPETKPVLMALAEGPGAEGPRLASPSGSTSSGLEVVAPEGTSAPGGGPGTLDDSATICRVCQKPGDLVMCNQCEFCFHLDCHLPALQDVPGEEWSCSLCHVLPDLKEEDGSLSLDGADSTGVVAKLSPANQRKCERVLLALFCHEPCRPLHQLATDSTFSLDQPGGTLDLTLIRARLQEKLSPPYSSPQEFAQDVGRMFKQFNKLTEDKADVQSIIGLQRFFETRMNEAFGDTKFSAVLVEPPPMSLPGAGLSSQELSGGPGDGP
UniProt Q10567: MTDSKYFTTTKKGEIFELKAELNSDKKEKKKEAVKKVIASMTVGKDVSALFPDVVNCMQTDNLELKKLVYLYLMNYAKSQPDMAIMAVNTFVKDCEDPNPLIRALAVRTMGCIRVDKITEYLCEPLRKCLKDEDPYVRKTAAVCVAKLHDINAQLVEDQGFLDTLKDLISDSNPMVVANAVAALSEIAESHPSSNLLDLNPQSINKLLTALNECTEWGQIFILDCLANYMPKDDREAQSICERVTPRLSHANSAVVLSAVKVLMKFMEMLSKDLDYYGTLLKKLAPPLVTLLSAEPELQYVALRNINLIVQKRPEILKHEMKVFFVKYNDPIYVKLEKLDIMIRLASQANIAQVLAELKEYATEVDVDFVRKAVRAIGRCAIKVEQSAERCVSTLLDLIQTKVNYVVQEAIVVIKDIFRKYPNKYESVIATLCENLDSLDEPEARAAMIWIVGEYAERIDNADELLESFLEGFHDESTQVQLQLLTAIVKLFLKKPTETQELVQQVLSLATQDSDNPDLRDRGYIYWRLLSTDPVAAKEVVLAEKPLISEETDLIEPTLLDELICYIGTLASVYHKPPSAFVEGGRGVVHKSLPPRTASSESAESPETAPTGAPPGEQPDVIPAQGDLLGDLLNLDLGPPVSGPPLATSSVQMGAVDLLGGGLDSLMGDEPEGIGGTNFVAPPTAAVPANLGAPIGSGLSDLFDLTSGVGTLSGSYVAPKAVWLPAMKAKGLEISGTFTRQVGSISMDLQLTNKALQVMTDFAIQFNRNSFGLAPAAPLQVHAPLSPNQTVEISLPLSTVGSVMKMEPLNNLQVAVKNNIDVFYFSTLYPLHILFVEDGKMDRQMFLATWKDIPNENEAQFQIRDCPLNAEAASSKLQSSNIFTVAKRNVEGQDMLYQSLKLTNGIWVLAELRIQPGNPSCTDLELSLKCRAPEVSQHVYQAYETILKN

Compound: COC(=O)/C=C/c1ccccc1 [methyl cinnamate]
Assay: log2 ratio of iodoacetamide-alkyne labeling of the cysteine site, DMSO over compound (competition); higher = stronger covalent engagement of the cysteine by the compound, active = 1 or more
Settings: 500 µM; treatment time 1 h; system: HEK293T cell lysate
In short: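 Electrophile (500 µM) or vehicle was added to HEK293T lysate (2 mg/mL) for 1 h at ambient temperature before iodoacetamide alkyne labelling (1 h) and click coupling to sCIP-TMT reagents. After pooling, overnight trypsin digestion at 37 °C, streptavidin enrichment and acid elution, peptides were measured by Orbitrap Eclipse LC-MS/MS with FAIMS and quantified in FragPipe. Each cysteine's log2 competition ratio compares mean control-channel with mean compound-channel reporter intensity, control over compound. Data came from duplicate channels across three replicates, excluding cysteines quantified in only one replicate.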

log2 ratio of iodoacetamide-alkyne labeling, inactive:
PPAT C496 (UniProt Q06203) 0.249
DST C4370 (UniProt Q03001) 0.297
NNT C936 (UniProt Q13423) -0.0296
CHAF1A C190 (UniProt Q13111) 0.679
EEF1A2 C326 (UniProt Q05639) 0.338
SCRN3 C102 (UniProt Q0VDG4) 0.463
GPS1 C175 (UniProt Q13098) 0.0483
IK C263 (UniProt Q13123) 0.276
AHNAK C2162 (UniProt Q09666) 0.351
PSMD2 C779 (UniProt Q13200) 0.0793
PLOD1 C267 (UniProt Q02809) 0.104
UniProt Q02930_C80 0.593
FLII C1265 (UniProt Q13045) 0.108
GTF3C1 C1188 (UniProt Q12789) 0.0348
NOTCH2 C1357 (UniProt Q04721) 0.204
MVK C275 (UniProt Q03426) 0.237
GAB1 C8 (UniProt Q13480) 0.161
DHX9 C438 (UniProt Q08211) 0.0198
UniProt Q13155_C306 0.198
UniProt Q03164_C2159 0.513
LAMTOR4 C51 (UniProt Q0VGL1) 0.132
DHX9 C469 (UniProt Q08211) 0.22
EIF4G1 C1516 (UniProt Q04637) -0.42
RPL18 C134 (UniProt Q07020) 0.0996
CHAF1A C202 (UniProt Q13111) 0.288
KLC1 C114 (UniProt Q07866) 0.179
RING1 C69 (UniProt Q06587) 0.124
PTPN13 C2229 (UniProt Q12923) 0.116
NFX1 C1067 (UniProt Q12986) 0.125
TRIM28 C628 (UniProt Q13263) -0.187
TCOF1 C1298 (UniProt Q13428) 0.213
AP1B1 C123 (UniProt Q10567) 0.0716
NFIA C404 (UniProt Q12857) 0.163
PTPN11 C259 (UniProt Q06124) -0.029
AHNAK C1967 (UniProt Q09666) 0.235
GTF3C1 C544 (UniProt Q12789) 0.153
GABPB1 C331 (UniProt Q06547) 0.0466
EIF4G1 C662 (UniProt Q04637) 0.123

2 successive entries out of the list so far, for reference:
log2 ratio of iodoacetamide-alkyne labeling, inactive:
NFX1 C1067 (UniProt Q12986) 0.125
TRIM28 C628 (UniProt Q13263) -0.187
